Results reported in patent publication US6684405B2, “Surgical and examination gloves” (priority 2001, dated 2004).

Assay: Donnability of latex examination gloves dusted with test material, compared to talc
Conditions: latex examination glove, 6 mg. of test material dusted into the glove; rating 0 to 10 with 10 being the best

Row | Compound | Rating (donnability)
1 | O=C(O)c1cc(=O)c2c(OCC(O)COc3cccc4oc(C(=O)O)cc(=O)c34)cccc2o1 [Sodium Cromolyn] | 7
2 | Alpha 1-antitrypsin | 7
